Results are given in words; binding and its absence hold for the method and conditions named. Some entries that bind do so weakly or less than the wild type. Sequences can lack the tags named with a protein.
Target: T1, His-FtsB (Escherichia coli) (UniProt P0A6S5)
T1 sequence: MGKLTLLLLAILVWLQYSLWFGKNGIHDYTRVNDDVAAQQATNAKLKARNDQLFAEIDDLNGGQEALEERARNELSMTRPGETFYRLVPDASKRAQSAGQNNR
Test: co-purification on Ni-NTA; His-FtsB and Strep-FtsL_(35–121) co-expressed in E. coli BL21(DE3); complex extracted from membranes with 18 mM n-decyl-β-D-maltopyranoside; batch binding to Ni-NTA agarose 2 h at 4 °C; wash 50 mM imidazole, elution 300 mM imidazole, 300 mM NaCl, 25 mM Hepes pH 8.0, 510 μM DDM

- binding: binds
B1: Strep-FtsL_(35–121)–C41A–C45A (domain or fragment, UniProt P0AEN4 35-121)
chain: FGKLPLALFIAIILTAVTVVTTAHHTRLLTAQREQLVLERDALDIEWRNLILEENALGDHSRVERIATEKLQMQHVDPSQENIVVQK
